At least one peptide structure holds a part that was inferred or is arguable (an end, a ring closure or a residue). Peptide text beside a SMILES is read from it.
Columns and labels:
Format in all cases: cell-based
RAW264.7 cells [1] = test: TRAP staining after RANKL-induced differentiation into osteoclasts; details: RANKL plus peptide at different concentrations, 4 days, compared to RANKL control group, FIG. 1, FIG. 2
RAW264.7 cells [2] = test: TRAP activity evaluation after RANKL-induced differentiation into osteoclasts; details: RANKL plus peptide at different concentrations, 4 days, absorbance 405 nm, concentration-dependent tendency, FIG. 4, FIG. 5
NFATc1 [3] = test: Expression of transcription factor NFATc1 (RT-PCR, Western blot) during RANKL-induced osteoclast differentiation of RAW264.7 cells; details: induced by RANKL, after 24 or 48 hours, mRNA and protein, FIG. 6 to FIG. 9
c-Fos [4] = test: Expression of transcription factor c-Fos (RT-PCR, Western blot) during RANKL-induced osteoclast differentiation of RAW264.7 cells; details: induced by RANKL, after 24 or 48 hours, mRNA and protein, FIG. 6 to FIG. 9
OSCAR [5] = test: Expression of downstream signal transducer OSCAR (RT-PCR) during RANKL-induced osteoclast differentiation of RAW264.7 cells; details: induced by RANKL, after 24 or 48 hours, mRNA, FIG. 10, FIG. 11
CTSK [6] = test: Expression of downstream signal transducer CTSK (RT-PCR) during RANKL-induced osteoclast differentiation of RAW264.7 cells; details: induced by RANKL, after 24 or 48 hours, mRNA, FIG. 10, FIG. 11
DC-STAMP [7] = test: Expression of downstream signal transducer DC-STAMP (RT-PCR) during RANKL-induced osteoclast differentiation of RAW264.7 cells; details: induced by RANKL, after 24 or 48 hours, mRNA, FIG. 10, FIG. 11
Atp6v0d2 [8] = test: Expression of downstream signal transducer Atp6v0d2 (RT-PCR) during RANKL-induced osteoclast differentiation of RAW264.7 cells; details: induced by RANKL, after 24 or 48 hours, mRNA, FIG. 10, FIG. 11
c-Fos [9] = test: Expression of c-Fos (RT-PCR, Western blot) in osteoclast precursor cells induced by RANKL; details: re-treated with RANKL and peptide after 72 hours, harvested after 3 or 6 hours, mRNA and protein, FIG. 12, FIG. 13
NFATc1 [10] = test: Expression of NFATc1 (RT-PCR, Western blot) in osteoclast precursor cells induced by RANKL; details: re-treated with RANKL and peptide after 72 hours, harvested after 3 or 6 hours, mRNA and protein, FIG. 12, FIG. 13
OSCAR [11] = test: Expression of OSCAR (RT-PCR) in osteoclast precursor cells induced by RANKL; details: re-treated with RANKL and peptide after 72 hours, harvested after 3 or 6 hours, mRNA, FIG. 14
CTSK [12] = test: Expression of CTSK (RT-PCR) in osteoclast precursor cells induced by RANKL; details: re-treated with RANKL and peptide after 72 hours, harvested after 3 or 6 hours, mRNA, FIG. 14
DC-STAMP [13] = test: Expression of DC-STAMP (RT-PCR) in osteoclast precursor cells induced by RANKL; details: re-treated with RANKL and peptide after 72 hours, harvested after 3 or 6 hours, mRNA, FIG. 14
Atp6v0d2 [14] = test: Expression of Atp6v0d2 (RT-PCR) in osteoclast precursor cells induced by RANKL; details: re-treated with RANKL and peptide after 72 hours, harvested after 3 or 6 hours, mRNA, FIG. 14

SMILES	TRAP expression (RAW264.7 cells [1])	TRAP activity (RAW264.7 cells [2])	expression of NFATc1 (NFATc1 [3])	expression of c-Fos (c-Fos [4])	expression of OSCAR (OSCAR [5])	expression of CTSK (CTSK [6])	expression of DC-STAMP (DC-STAMP [7])	expression of Atp6v0d2d (Atp6v0d2 [8])	expression of c-Fos (c-Fos [9])	expression of NFATc1 (NFATc1 [10])	expression of OSCAR (OSCAR [11])	expression of CTSK (CTSK [12])	expression of DC-STAMP (DC-STAMP [13])	expression of Atp6v0d2 (Atp6v0d2 [14])
CC[C@H](C)[C@H](NC(=O)[C@@H](NC(=O)[C@H](CCCNC(=N)N)NC(=O)[C@H](CO)NC(=O)[C@H](CC(N)=O)NC(=O)[C@H](CO)NC(=O)CNC(=O)[C@@H](N)CCC(=O)O)[C@@H](C)O)C(=O)O [Peptide-1, EGSNSRTI] (H-EGSNSRTI-OH)	significantly reduced	inhibited	inhibited the expression	inhibited the expression	inhibited the expression	inhibited the expression	inhibited the expression	inhibited the expression	–	–	–	–	–	–
CC[C@H](C)[C@H](N)C(=O)N[C@H](C(=O)N[C@@H](C)C(=O)N1CCC[C@H]1C(=O)N[C@H](C(=O)NCC(=O)N[C@@H](Cc1ccc(O)cc1)C(=O)N[C@@H](Cc1ccc(O)cc1)C(=O)NCC(=O)N[C@@H](CC(N)=O)C(=O)O)[C@@H](C)O)[C@@H](C)CC [Peptide-2, IIAPTGYYGN] (H-IIAPTGYYGN-OH)	significantly reduced	inhibited	inhibited the expression	inhibited the expression	inhibited the expression	inhibited the expression	inhibited the expression	inhibited the expression	inhibited the expression	inhibited the expression	inhibited the expression	inhibited the expression	inhibited the expression	inhibited the expression

From patent EP4631960A1, “PEPTIDE HAVING INHIBITORY ACTIVITY AGAINST OSTEOCLAST DIFFERENTIATION, AND USE THEREOF” (Caregen Co., Ltd., priority 2022, dated 2024)
